Patent US6849603B1 (NSS T Neurosurvival Technologies Ltd., priority 1998, dated 2005)

Assay: general procedure: Fmoc solid-phase peptide synthesis; preloaded Wang resin (Wang resin or 2-chlorotrityl resin); HBTU/HOBt, DIEA
Conditions: whole synthesis, non calibrated RP-HPLC, scale of the general procedure 330 μmol

**Q.** For FELRYRRAF, which “final HPLC purity” value is on record?
**A.** 86.1%

Ends that are not written are not given here.
